# ± gives the standard deviation of the averaged measurements. The full ranking holds about 3,800 compounds; the median of “cell shape (eccentricity) Z-score vs DMSO control” is about 1.1, and the lowest 2% start at about -4.7. The list shows a part of the results.
# Tested on: human monocyte-derived macrophages (M0)
# Assay: cell shape (eccentricity) Z-score vs DMSO control; higher = more elongated, M2-like morphology
# Conditions: 20 µM; 24 h; macrophage state: M0 (M-CSF)
row,Compound,cell shape (Z-score)
1,CCCCc1nc2ccn(CC(=O)N(C)C)c(=O)c2n1Cc1ccc(-c2ccccc2-c2nnn[nH]2)cc1,1.26
2,C=C(C(=O)O[C@H]1C[C@]2(C)C(C(C=O)CC[C@H]2O)[C@H]2OC(=O)C(=C)[C@H]12)C(O)CO (stereo not given in full),0.931
3,NC(=O)Nc1sc(-c2ccc(F)cc2)cc1C(N)=O,5.51
4,C/C(=C/CCC(CO)C1CCC2(C)C3CCC4C(C)(C)C(OC5OC(CO)C(O)C(O)C5O)CC(O)C45CC35CCC12C)COC1OC(CO)C(O)C(O)C1O (stereo not given),0.127
5,N=C(N)SCCc1ccc(OCc2ccc([N+](=O)[O-])cc2)cc1,0.464
6,CCOC(=O)[C@@H](CCc1ccccc1)N[C@H](C)C(=O)N1[C@@H]2CCC[C@H]2C[C@H]1C(=O)O,-0.36
7,COC(=O)C1=CO[C@@H](O[C@@H]2O[C@H](CO)[C@@H](O)[C@H](O)[C@H]2O)[C@H]([C@H](C)OC(C)=O)[C@@H]1CC(=O)O,-1.45
8,C=CC(C)(O)CC/C=C(\CO)C(=O)O[C@@H]1C(C)O[C@@H](O[C@](C)(C=C)CC/C=C(\CO)C(=O)O[C@H]2C[C@@]3(C(=O)O[C@@H]4OC(CO)[C@@H](O)[C@@H](O)[C@@H]4O[C@@H]4OC(C)[C@H](O[C@@H]5O[C@@H](CO)[C@H](O)[C@@H]5O)[C@@H](O[C@@H]5OC(CO)[C@@H](O)[C@@H](O)[C@@H]5O)[C@@H]4O)C(CC2(C)C)C2=CCC4[C@@]5(C)CC[C@H](O[C@@H]6OC(CO[C@@H]7OC(C)[C@H](O)[C@@H](O)[C@@H]7O[C@@H]7OC[C@@H](O)[C@@H](O)[C@@H]7O)[C@@H](O)[C@@H](O)[C@@H]6NC(C)=O)C(C)(C)C5CC[C@@]4(C)[C@]2(C)C[C@H]3O)[C@@H](O)[C@@H]1O (stereo not given in full),6.07
9,COC(=O)C1=CO[C@@H](O[C@@H]2O[C@H](CO)[C@@H](O)[C@H](O)[C@H]2O)[C@H]2[C@@H]1C=CC21C=C([C@H](C)O)C(=O)O1 (stereo not given in full),2.96
10,COC1=CC(=O)O[C@@H](/C=C/c2ccccc2)[C@@H]1O,-1.25
11,CC[N+](C)(CC)CC(=O)Nc1c(C)cccc1C,-0.632
12,CC(CCCCC(=O)Nc1ccc(C(F)(F)F)cc1)NCCc1c[nH]cn1 (stereo not given),-3.62
13,COC1=CC(C)c2c(c(OC)c3occ(C)c3c2C)C1=O (stereo not given),0.208
14,CCCCc1nc(Cl)c(CO)n1Cc1ccc(-c2ccccc2-c2nnn[nH]2)cc1,0.487
15,O=C(O)CCCN1C(=O)c2cccc3cccc(c23)C1=O,1.83
16,O=C(/C=C/c1ccc(O)c(O)c1)c1ccc(O)cc1O,-2.96
17,C=C1[C@]2(C)C[C@@H]3C(=C)[C@@]4(C=CC(=O)OC4(C)C)CC[C@@]3(C)[C@]13C(=O)O[C@H](C)[C@]3(O)C2=O,0.728 ± 1.9
18,CNCCC(Oc1ccc(C(F)(F)F)cc1)c1ccccc1 (stereo not given),-4.88
19,C[C@@H]1O[C@@H](O[C@H]2[C@H](OC(=O)[C@]34CCC(C)(C)C[C@H]3C3=CCC5[C@@]6(C)C[C@H](O)[C@H](O[C@@H]7O[C@H](C(=O)O)[C@@H](O)[C@H](O)[C@H]7O)[C@@](C)(CO)C6[C@H](O)C[C@@]5(C)[C@]3(C)C[C@H]4O)O[C@@H](CO)[C@@H]2O)[C@H](O)[C@H](O)[C@H]1O[C@@H]1OC[C@@H](O)[C@H](O[C@H]2OC[C@](O)(CO)[C@H]2O)[C@H]1O (stereo not given in full),-10.1
20,COc1cc(S(C)=O)ccc1-c1nc2ncccc2[nH]1 (stereo not given),-0.92
21,CN(C)CCCOc1nn(Cc2ccccc2)c2ccccc12,2.34
22,O=S(=O)(c1cccc2c(O)nccc12)N1CCCNCC1,0.439
23,COc1cc(O)c(C(C)=O)c(OC)c1,1.4
24,CC(C)[C@H]1CC[C@H](C(=O)N[C@@H](Cc2ccccc2)C(=O)O)CC1,3.86
25,Cc1c(CC(C)(C)C(=O)O)n(Cc2ccc(Cl)cc2)c2ccc(F)cc12,2.64

row,Compound,cell shape (Z-score)
1,CCc1c(O)cc(OC)c2c1O[C@H](C)CC2=O,1.92
2,O=C(O)[C@@H]1CCCC[C@@H]1C(=O)N1CCc2ccccc2[C@H]1CN1C(=O)c2ccccc2C1=O,-1.26
3,CN1CCc2c(c3ccccc3n2Cc2ccccc2)C1,2.69
4,CCN(CC)CCOC(=O)C1(c2ccc([N+](=O)[O-])cc2)CCCC1,2.42
5,COc1cccc2cc(-c3nc([C@H]4CC[C@H](C(=O)O)CC4)n4ncnc(N)c34)[nH]c12,2.16
6,CC1=C2C(O)C(=O)OC3CC4C(C)(C)C(=O)C=C[C@]4(C)C(CC1)[C@]23C (stereo not given in full),-1.55
7,CC1OC(OC2C(CO)OC(OC(=O)[C@]34CCC(C)(C)CC3C3=CCC5[C@@]6(C)CC[C@H](OC7OC(C)C(OC8OCC(O)(COC9OCC(O)C(OC%10OCC(OC%11OCC(O)(CO)C%11O)C(O)C%10O)C9O)C8O)C(O)C7O)C(C)(C)C6CC[C@@]5(C)[C@]3(C)CC4)C(O)C2O)C(O)C(O)C1O (stereo not given in full),2.74
8,CC12CCC3c4ccc(O)cc4CCC3C1CCC2=O (stereo not given),0.327
9,CCCn1c(=O)c2[nH]c(C34CC5CC(CC3C5)C4)nc2n(CCC)c1=O,-0.766
10,C=C1CCC2C(CC2(C)C)C(=O)CCC1O (stereo not given),-1.93
11,C=C[C@]1(C)CC[C@H]([C@H](C)C(=O)/C=C/C(C)(C)O)O1,1.96
12,N#Cc1cnc2c(Cl)cc(NCc3cnc[nH]3)cc2c1Nc1ccc(F)c(Cl)c1,3.5
13,COCc1nc2c(=O)n(C)c(=O)n(CC(C)C)c2[nH]1,0.361
14,CCCCCCCCCCCCCCCCCCc1ccc(C(=O)C=CC(=O)O)cc1,0.47
15,CC1CCC2(C)C(CC(O)C(O)C2(O)CO)C1(C)CCc1ccoc1 (stereo not given),0.144
16,CCC(C)CCC(O)C1=C(C)C(O)OC1=O (stereo not given),1.6
17,COc1ccc(/C=C/C(=O)O[C@H]2[C@H](OC3C4O[C@]4(CO)[C@H]4C(O[C@@H]5O[C@H](CO)[C@@H](O)[C@H](O)[C@H]5O)OC=C[C@@H]34)O[C@@H](C)[C@H](O)[C@H]2O)cc1 (stereo not given in full),0.623
18,Clc1cccc(Cl)c1N=C1NCCN1,0.157
19,O=C1C(CCS(=O)c2ccccc2)C(=O)N(c2ccccc2)N1c1ccccc1 (stereo not given),1.88
20,CC(=O)Oc1cccc(C(=O)O)c1OC(C)=O,0.0206
21,CN(C)CCC=C1c2ccccc2CCc2ccccc21,-2.82
22,CC(C)(C)c1cc(C(=O)/C=C/c2ccc(C(=O)O)cc2)cc(C(C)(C)C)c1,5.51
23,CC(=O)O[C@H]1C[C@@]2(C)[C@@H](C[C@@H](O)C3[C@]2(C)CC[C@H]2[C@H](C)[C@H](O)CC[C@]32C)/C1=C(/CCC=C(C)C)C(=O)O (stereo not given in full),0.356
24,COc1cc2cc(Oc3ccc4ccc(=O)oc4c3)c(=O)oc2cc1OC1OC(COC(=O)CC(C)(O)CC(=O)O)C(O)C(O)C1O (stereo not given),-0.188
25,COc1cc(O)c2c(c1)OC(c1ccc(O)cc1)CC2=O (stereo not given),-0.856

# Compounds above that contain a COOH group:
row,Compound,cell shape (Z-score)
6,CCOC(=O)[C@@H](CCc1ccccc1)N[C@H](C)C(=O)N1[C@@H]2CCC[C@H]2C[C@H]1C(=O)O,-0.36
7,COC(=O)C1=CO[C@@H](O[C@@H]2O[C@H](CO)[C@@H](O)[C@H](O)[C@H]2O)[C@H]([C@H](C)OC(C)=O)[C@@H]1CC(=O)O,-1.45
15,O=C(O)CCCN1C(=O)c2cccc3cccc(c23)C1=O,1.83
19,C[C@@H]1O[C@@H](O[C@H]2[C@H](OC(=O)[C@]34CCC(C)(C)C[C@H]3C3=CCC5[C@@]6(C)C[C@H](O)[C@H](O[C@@H]7O[C@H](C(=O)O)[C@@H](O)[C@H](O)[C@H]7O)[C@@](C)(CO)C6[C@H](O)C[C@@]5(C)[C@]3(C)C[C@H]4O)O[C@@H](CO)[C@@H]2O)[C@H](O)[C@H](O)[C@H]1O[C@@H]1OC[C@@H](O)[C@H](O[C@H]2OC[C@](O)(CO)[C@H]2O)[C@H]1O (stereo not given in full),-10.1
24,CC(C)[C@H]1CC[C@H](C(=O)N[C@@H](Cc2ccccc2)C(=O)O)CC1,3.86
25,Cc1c(CC(C)(C)C(=O)O)n(Cc2ccc(Cl)cc2)c2ccc(F)cc12,2.64
2,O=C(O)[C@@H]1CCCC[C@@H]1C(=O)N1CCc2ccccc2[C@H]1CN1C(=O)c2ccccc2C1=O,-1.26
5,COc1cccc2cc(-c3nc([C@H]4CC[C@H](C(=O)O)CC4)n4ncnc(N)c34)[nH]c12,2.16
14,CCCCCCCCCCCCCCCCCCc1ccc(C(=O)C=CC(=O)O)cc1,0.47
20,CC(=O)Oc1cccc(C(=O)O)c1OC(C)=O,0.0206
22,CC(C)(C)c1cc(C(=O)/C=C/c2ccc(C(=O)O)cc2)cc(C(C)(C)C)c1,5.51
23,CC(=O)O[C@H]1C[C@@]2(C)[C@@H](C[C@@H](O)C3[C@]2(C)CC[C@H]2[C@H](C)[C@H](O)CC[C@]32C)/C1=C(/CCC=C(C)C)C(=O)O (stereo not given in full),0.356
24,COc1cc2cc(Oc3ccc4ccc(=O)oc4c3)c(=O)oc2cc1OC1OC(COC(=O)CC(C)(O)CC(=O)O)C(O)C(O)C1O (stereo not given),-0.188

# Remaining list, next part:

row,Compound,cell shape (Z-score)
1,CCCCCCCC(=O)O,1.79
2,Cc1ccc(-c2cc(C(F)(F)F)nn2-c2ccc(S(N)(=O)=O)cc2)cc1,1.41
3,CC1CC(=O)c2c(ccc3c2C(=O)c2c(O[C@@H]4O[C@@H](C)[C@H](O)[C@@H](O)[C@H]4O)cccc2C3=O)C1 (stereo not given in full),-0.371 ± 0.36
4,COCc1cc(O)c(O)c(O)c1-c1c(COC)cc(O)c(O)c1O,0.769
5,CCOC(=O)[C@H](CCc1ccccc1)N[C@@H](C)C(=O)N1[C@H](C(=O)O)C[C@H]2CCCC[C@@H]21,-0.909
6,C=C1C2CCC3[C@]4(C)CCC[C@@](C)(C(=O)O)C4CC[C@]3(C2)C1OC(C)=O (stereo not given in full),0.977
7,CC(C)=C1C[C@@]2(CO)C(=CC1=O)CC[C@@H](O)[C@@H]2C,1.67
8,O=C(Nc1ccc(C(=O)O)c(O)c1)c1ccccc1,1.5
9,COc1cc(O)c2c(c1C)C(C)C(O)(CO)OC2=O (stereo not given),0.579
10,CC(=O)Oc1cc2c(c(C)c1OC(C)=O)CC=C1[C@@]2(C)CC[C@@]2(C)C3C[C@](C)(C(=O)O)CC[C@]3(C)CC[C@]12C (stereo not given in full),-13.8
11,CN(Cc1ccccc1)C(=O)[C@H](Cc1ccc2ccccc2c1)NC(=O)[C@@H]1C[C@@H](O)CN1C(=O)c1cn(C)c2ccccc12,3.67
12,C=C1CCC2[C@](C)(CCC[C@]2(C)C(=O)O)[C@H]1CC/C(C)=C/C(=O)O (stereo not given in full),0.268
13,CC(C)[C@H](O)C(=O)N[C@@H](C)C(=O)N[C@@H]1C(=O)N(C)CCc2ccccc21,-0.303
14,OC(CCl)CN1CC[N+]2(CC1)CC[N+]1(CCN(CC(O)CCl)CC1)CC2 (stereo not given),-0.229
15,Cc1noc(NS(=O)(=O)c2cccc3c(N(C)C)cccc23)c1C,-0.278
16,CC(=O)N[C@H]1[C@H](O[C@H]2CC[C@@]3(C)C(CC[C@]4(C)C3CC=C3[C@@H]5CC(C)(C)CC[C@]5(C(=O)OC5OCC(O)C(O)C5O)C(O)C[C@]34C)C2(C)C)O[C@H](COC2OCC(O)C(OC3OCC(O)C(O)C3O)C2O)[C@@H](O[C@@H]2O[C@@H](C)[C@H](O)[C@@H](O)[C@H]2O[C@@H]2O[C@@H](C)[C@H](O)[C@@H](O)[C@H]2O)[C@@H]1O (stereo not given in full),-2.27 ± 4.4
17,CCOC(=O)C1CN(Cc2ccccc2)C(=O)C1=O (stereo not given),3.41
18,COCCOC(=O)C1=C(C)NC(C)=C(C(=O)OCC=Cc2ccccc2)C1c1cccc([N+](=O)[O-])c1 (stereo not given),3.39
19,CCN1C(=CC=Cc2ccc3ccccc3[n+]2CC)C=Cc2ccccc21,-7.46
20,COc1cc(/C=C/C(=O)O[C@H]2CC[C@]34CC35CC[C@]3(C)[C@@H](C(C)CCC=C(C)C)CC[C@@]3(C)C5CCC4C2(C)C)ccc1O (stereo not given in full),-1.25
21,COc1ccc(C2C(C(=O)Nc3ccccc3)=C(C)N=c3s/c(=C\c4cn(Cc5ccccc5)c5ccccc45)c(=O)n32)cc1 (stereo not given),4.52
22,CNC[C@@H]1Oc2ccc(N(C)C)cc2CC(=O)N([C@@H](C)CO)C[C@@H]1C,3.41
23,COc1cc(SC)ccc1-c1nc2ccncc2[nH]1,0.475
24,CCN(CC)CCn1c(=O)c(Cc2ccc(OC)cc2)nc2ccccc21,0.381
25,CCCCCCCCCCC(C)(C)C(=O)Nc1c(OC)cc(OC)cc1OC,5.62
